Source: PubChem BioAssay AID602196 (INSERM, 2012)
Shown is an unselected part of about 23,000 reagents. 455 of them (2%) were called active. 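Active includes both protection and sensitisation; some change values fall well beyond the stated -50 to +50 range.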 Not given: the amount of reagent.

- Assay: 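Genes whose knock-down alters cisplatin killing of lung cancer cells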
- Cell system: human A549 lung cancer cells
- Reagent: siRNA pair against human genes
- Duration: 48 h transfection before cisplatin; time from cisplatin to read-out not stated
- Conditions: cisplatin at a dose killing half of control-siRNA cells; exact dose and duration not given
- Measured: 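Shift in cisplatin death relative to control siRNA, from -50 (all cells die) to +50 (no cells die); siRNAs harmful on their own scored 0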
- Reading the numbers: two-siRNA summed score (-2 to +2): higher = both siRNAs protect from cisplatin killing; -2 means both sensitise; mean protection from cisplatin (shift in death) and protection from cisplatin (shift in death), siRNA C and protection from cisplatin (shift in death), siRNA D: higher = protection from cisplatin killing
- Hit rule: 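Each siRNA scores 0 if harmful alone by LDH or WST-1, otherwise +1 if it reduces and -1 if it increases cisplatin killing; a gene is active when both siRNAs agree (sum +2 or -2)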
- Calls: active = both siRNAs shift cisplatin killing the same way; inactive = no consistent shift, or siRNA harmful alone

Target gene | two-siRNA summed score (-2 to +2) | mean protection from cisplatin (shift in death) (%) | protection from cisplatin (shift in death), siRNA C (%) | protection from cisplatin (shift in death), siRNA D (%) | call
NFYC (nuclear transcription factor Y subunit gamma) | 1 | 16.6 | 35.5 | -2.2 | inactive
LOC442388 | 0 | 13.4 | 7 | 19.8 | inactive
GAN (gigaxonin) | 0 | -6 | -4.9 | -7 | inactive
GSDMB (gasdermin B) | 0 | 9.5 | 14 | 5 | inactive
MRPL21 (mitochondrial ribosomal protein L21) | 0 | 6.7 | 8.9 | 4.4 | inactive
OR52L1 (olfactory receptor family 52 subfamily L member 1) | 2 | 21.5 | 16.2 | 26.8 | active
LOC389786 | 2 | 32.5 | 31.1 | 33.9 | active
MANF (mesencephalic astrocyte derived neurotrophic factor) | 0 | -2 | -3 | -1 | inactive
LOC401261 | 0 | 1.3 | 6.5 | -3.8 | inactive
PGLS (6-phosphogluconolactonase) | 0 | -4.3 | -7.9 | -0.7 | inactive
KIFC2 (kinesin family member C2) | 1 | 19.7 | 16.3 | 23.1 | inactive
RRP1B (ribosomal RNA processing 1B) | 0 | 7.2 | 10.2 | 4.1 | inactive
PDCL3P4 (PDCL3 pseudogene 4) | 1 | 6 | 18.4 | -6.4 | inactive
IL2RB (interleukin 2 receptor subunit beta) | 0 | 0.3 | 8.5 | -7.9 | inactive
NUCB2 (nucleobindin 2) | 2 | 18.2 | 17.9 | 18.6 | active
TRAPPC6B (trafficking protein particle complex subunit 6B) | 0 | 3.8 | 8.2 | -0.6 | inactive
LMAN1 (lectin, mannose binding 1) | 0 | -2.8 | 0.3 | -5.8 | inactive
SERPINB5 (serpin family B member 5) | -1 | -8.5 | -24.4 | 7.3 | inactive
TPCN2 (two pore segment channel 2) | 0 | 1.6 | 15 | -11.8 | inactive
ZNF818P (zinc finger protein 818, pseudogene) | 0 | 1.6 | 0.5 | 2.7 | inactive
HYLS1 (HYLS1 centriolar and ciliogenesis associated) | 0 | 8.9 | 22.8 | -5 | inactive
RPL41 (ribosomal protein L41) | 0 | 12.4 | 10 | 14.8 | inactive
LOC285442 (mitochondrial translation release factor 1 like pseudogene) | 0 | 0.5 | 4.3 | -3.4 | inactive
SMC1A (structural maintenance of chromosomes 1A) | 0 | 6.5 | 13.6 | -0.5 | inactive
SPTSSA (serine palmitoyltransferase small subunit A) | 1 | 7.8 | -5.8 | 21.5 | inactive
LOC342346 | 0 | -3.9 | -17.1 | 9.4 | inactive
LOC440364 | 1 | 7.3 | 13.7 | 0.9 | inactive
WNT1 (Wnt family member 1) | 0 | -14.4 | -20.3 | -8.4 | inactive
GABRA1 (gamma-aminobutyric acid type A receptor subunit alpha1) | 0 | 9.5 | 8.9 | 10 | inactive
GSTA2 (glutathione S-transferase alpha 2) | 1 | 6.4 | 0 | 12.8 | inactive
DEXI (Dexi homolog) | 0 | 7.5 | 9.5 | 5.6 | inactive
MMP12 (matrix metallopeptidase 12) | 0 | 4.3 | 15.4 | -6.7 | inactive
MAD1L1 (mitotic arrest deficient 1 like 1) | 0 | -17.2 | -6.2 | -28.3 | inactive
MPIG6B (megakaryocyte and platelet inhibitory receptor G6b) | 0 | -1.3 | -8.2 | 5.6 | inactive
TP53BP1 (tumor protein p53 binding protein 1) | 0 | 5.9 | 1.9 | 9.8 | inactive
PCDHB7 (protocadherin beta 7) | 0 | -2.5 | 7.9 | -12.8 | inactive
LOC389099 | 0 | 5.9 | 2.7 | 9 | inactive
GNG2 (G protein subunit gamma 2) | 0 | -3.5 | -13.7 | 6.7 | inactive
VRK2 (VRK serine/threonine kinase 2) | 2 | 11.7 | 11.2 | 12.1 | active
